Some of the results follow. These are further read-outs of the screen, such as a control signal, another cell line or another target. No call is given for them. Most of these compounds were active or inconclusive in the main read-out, so they are no random draw. Potencies come from curve fits of mixed quality, noted in brackets.

This assay can be described thus: qHTS Assay for Lipid Storage Modulators in Drosophila S3 Cells.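 As to cell number change: cells counted by Cell Tracker Red CMTPX staining in the red channel.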 As to conditions: BODIPY lipid droplet fluorescence, 18-24 h; for cell number change: measured here: cell count max response, cells fed with added oleic acid. An outline of the steps: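 Drosophila S3 cells loaded with oleic acid (400 uM, as added) and compounds at several concentrations; lipid droplets imaged by 488-nm laser-scanning cytometry, 500–530 nm intensity and object ratio to cell channel. Percent activity normalized to 20 uM Triacsin C.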
Background: qHTS replaces the single test concentration by a dilution series.

The mark [1] stands for this setting: measured here: lipid fluorescence (Fed channel) AC50, cells fed with added oleic acid.
[2] abbreviates: measured here: cell number channel AC50, cells fed with added oleic acid.

Consider `CCCn1c(NC(=O)C2CCN(C(=O)c3ccccc3C)CC2)nc2ccccc21`, for which the cell number change stood at 1.02%. The AC50 under setting [1] was 29.1 µM [falling, single point].

On to `CCC(O)C(C)(C)C` (stereo not given), for which the cell number change was 27.6%. In addition, the AC50 under setting [1] was 1.64 µM [rising, partial curve, poor fit].

For `COc1cccc(N=c2oc3ccccc3cc2-c2nc3ccccc3[nH]2)c1`, the cell number change is -61.7%. Also, the AC50 under setting [2] was 23.1 µM [falling, partial curve]. Further, under setting [1], the half-maximal activity concentration (AC50) was 18.4 µM [falling, partial curve].

Regarding `Cc1cc(NC(=O)CSc2nnc(-c3ccncc3)n2C)n(-c2ccccc2)n1`, the cell number change is -4.13%. Moreover, under setting [2], the AC50 was 0.92 µM [falling, full curve, poor fit]. Moreover, the AC50 under setting [1] was 0.00651 µM [falling, full curve, poor fit].

In the case of `Cc1cc(-n2ccnc2)n2c(nc3ccccc32)c1C#N`, the AC50 is 1.16 µM [rising, partial curve] under setting [2] and 0.461 µM [rising, partial curve, poor fit] under setting [1].

Take `CCOc1ccc(NCc2ccccc2OCc2cccc(F)c2)cc1`: the cell number change is -15.9%. The AC50 under setting [1] is 20.6 µM [falling, single point].

For the compound `COc1ccc(-n2c(COc3ccc(C)cc3)nnc2SCc2ccc(C#N)cc2)cc1`, the cell number change stood at 10.1%. Also, under setting [1], the AC50 was 0.164 µM [rising, full curve].

With `Cc1c(Cl)cc(-n2cnnn2)cc1[N+](=O)[O-]`, the cell number change is -8.3%. The AC50 under setting [2] is 0.82 µM [falling, single point].

`N#Cc1c(NC(=S)NC(=O)c2ccccc2)sc2c1CCN(CCc1ccccc1)C2`: the cell number change was 7.2%. Besides, under setting [1], the AC50 was 29.1 µM [falling, single point].

With `CC(=O)Nc1ccc(C2=NN(Cc3nnc(-c4ccccc4)o3)C(=O)SC2)cc1`, the cell number change was determined as 30.1%. The half-maximal activity concentration (AC50) under setting [2] is 29.1 µM [rising, single point]. Further, the AC50 under setting [1] is 0.411 µM [rising, full curve, poor fit].

Turning to `CCCN1CCC(NC23CC4CC(CC(C4)C2)C3)CC1`, the cell number change was 24.3%. In addition, the AC50 under setting [1] was 20.6 µM [rising, single point].

As to `CSc1nc2ncc3c(n2n1)CC1c2ccccc2CCN1C3=O` (stereo not given), the cell number change came to 104%. Further, the AC50 under setting [2] is 13 µM [rising, partial curve]. Besides, the AC50 under setting [1] was 14.6 µM [rising, partial curve].

`O=C(CN1CCN(c2ccc(O)cc2)CC1)Nc1ccc(SC(F)F)cc1`: the cell number change is -11.7%. Further, the concentration at half-maximal activity (AC50) under setting [1] is 29.1 µM [falling, single point].

In the case of `CC1(C)Nc2ccccc2C(=O)N1c1ccccc1`, the cell number change was determined as 19%.

Consider `O=C(COc1ccc(Nc2ccccc2)cc1)Nc1ccncc1`, for which the AC50 under setting [1] is 0.58 µM [falling, single point].

Turning to `CC(C)Oc1ccc(C(CC(=O)N(C)CCC#N)c2ccc(F)cc2)cc1` (stereo not given), the cell number change is -33.3%. For the same compound, under setting [2], the AC50 is 0.58 µM [falling, full curve]. Besides, the AC50 under setting [1] was 1.3 µM [rising, full curve].

Turning to `CCOC(=O)C1(Cc2cccc(OC)c2)CCN(CCO)CC1`, the cell number change was -5.14%. The AC50 under setting [1] was 1.46 µM [falling, partial curve, poor fit].

Consider `O=C(c1c[nH]c2ccccc12)C(Cl)c1ccccc1` (stereo not given), for which the cell number change is -24%. For the same compound, the half-maximal activity concentration (AC50) under setting [1] was 16.4 µM [falling, single point].

`Cc1cc(=O)oc2cc(OCC(=O)NC3CCN(Cc4ccccc4)CC3)c(Cl)cc12`: the cell number change came to 7.93%.

As to `CCCC1C(C(=O)OCC)=C(C)NC(C)=C1C(=O)OCC`, the cell number change is -32.4%. Besides, the half-maximal activity concentration (AC50) under setting [2] was 29.1 µM [falling, single point].

Regarding `C=CCN1C(=O)/C(=C2\SC(N3CCOCC3)=NC2=O)c2cc(Br)ccc21`, the cell number change is 63.1%. Further, the AC50 under setting [2] was 16.4 µM [rising, single point].

Turning to `C=CCOCC(O)Cn1c(N2CCCC2)nc2c1c(=O)n(C)c(=O)n2C` (stereo not given), the cell number change is 3.86%. Further, the half-maximal activity concentration (AC50) under setting [1] was 29.1 µM [rising, single point].

Turning to `Cc1cccc(-c2nsc(SCC(=O)c3ccc(Cl)cc3)n2)c1`, the cell number change amounted to 6.79%. Further, the AC50 under setting [1] was 5.17 µM [rising, partial curve].

As for `CC(=O)c1ccc(NCC(=O)N2CCN(S(=O)(=O)c3ccccc3)CC2)cc1`, the cell number change was -28%. Further, under setting [1], the AC50 was 6.51 µM [falling, single point].

Take `CCCCNC(=O)C(=O)NC(C)CCc1ccccc1` (stereo not given): the cell number change is -10.7%. Further, the AC50 under setting [2] was 6.51 µM [rising, single point]. Also, under setting [1], the AC50 is 0.461 µM [falling, full curve].

With `CCOc1ccc(S(=O)(=O)N2CCCCC2)cc1NC(=O)CCNC(=O)c1ccco1`, the cell number change was 69.1%. For the same compound, the AC50 under setting [2] was 11.6 µM [rising, partial curve].

Turning to `N#CCCN(C(=O)COC(=O)CCc1nc2ccccc2c(=O)[nH]1)c1ccc(F)cc1`, the cell number change is -2.67%. Also, the AC50 under setting [1] was 0.00461 µM [falling, full curve, poor fit].

With `COC(=O)CSc1nc2nc(C)c(Br)cc2[nH]1`, the AC50 under setting [1] is 0.0259 µM [rising, full curve, poor fit].

Consider `COc1ccccc1-n1cccc1C=O`, for which the cell number change was -1.37%. Besides, the AC50 under setting [2] was 4.61 µM [falling, single point]. The AC50 under setting [1] is 18.4 µM [rising, single point].

For the compound `O=C(Oc1ccccc1C(=O)N1CCOCC1)c1ccc(F)cc1`, the cell number change is -1.6%.

Take `COc1ccccc1NC(=S)N1CCN(Cc2ccc3c(c2)OCO3)CC1`: the cell number change is -100%. Further, under setting [2], the AC50 was 29.1 µM [falling, single point]. The AC50 under setting [1] is 0.291 µM [rising, full curve, poor fit].

For `O=C(NC(Cc1ccccc1)C(=O)O)/C(=C/c1cccc(Br)c1)NC(=O)c1ccco1` (stereo not given), the AC50 under setting [1] was 0.58 µM [falling, single point].

As for `CC(C)N1C(=O)S/C(=C\c2ccc(-c3ccc(Cl)c(C(=O)O)c3)o2)C1=O`, the cell number change was -15.9%. Also, the AC50 under setting [1] is 18.4 µM [rising, single point].

Take `CCN(CC)CCCNc1nc2cc(OC)c(OC)cc2c2nc(-c3cccnc3)nn12`: the cell number change is 12.1%.

As to `Cc1ccccc1C1(CCN2CCCCC2)CCOC(C)(C)C1` (stereo not given), the cell number change is 36%. The half-maximal activity concentration (AC50) under setting [2] was 5.8 µM [rising, full curve]. In addition, the AC50 under setting [1] was 0.731 µM [rising, full curve].

Turning to `CN(C)S(=O)(=O)N1CCN(CC(O)COc2ccc(-c3ccccc3)cc2)CC1` (stereo not given), the cell number change was -16.4%. Besides, the AC50 under setting [1] was 29.1 µM [falling, single point].

For `COc1ccc(CNC(=O)CS(=O)(=O)Cc2nc(-c3cccc(OC)c3)oc2C)cc1`, the cell number change is 14.1%. For the same compound, the concentration at half-maximal activity (AC50) under setting [1] is 29.1 µM [falling, single point].

Consider `CC1=[N+]([O-])C(N2CCOCC2)C(O)(c2ccccc2)C1` (stereo not given), for which the cell number change is -8.59%. The AC50 under setting [1] was 1.03 µM [falling, full curve].

Regarding `CCCN1C(=O)/C(=C/c2c(NCCCOC(C)C)nc3c(C)cccn3c2=O)SC1=S`, the cell number change came to 14.6%. Moreover, the AC50 under setting [1] was 14.6 µM [rising, partial curve, poor fit].

For `OC(COC(c1ccccc1)c1ccccc1)CN1CCc2ccccc2C1` (stereo not given), the cell number change stood at 1.38%. For the same compound, the half-maximal activity concentration (AC50) under setting [1] was 14.6 µM [falling, single point].

As to `CCOc1ccc(NC(=O)CCCCCN2C(=O)[C@@H]3Cc4ccccc4CN3C2=O)cc1`, the cell number change turned out to be 16.5%. Moreover, the half-maximal activity concentration (AC50) under setting [1] was 20.6 µM [rising, partial curve].

As for `CCOc1ccc(C(=O)CCC(=O)NN2C(=O)NC3(CCCCC3)C2=O)cc1`, the cell number change amounted to 20.4%.

Regarding `O=C(Nc1cccc(F)c1)C1CCN(C(=O)NCc2ccccc2)CC1`, the cell number change came out at 10.3%.

`COc1cc(N/C(N)=N/c2nc(C)cc(C)n2)cc(OC)c1`: the cell number change is -3.51%. Further, the AC50 under setting [1] was 29.1 µM [rising, single point].

As to `CCCCCNC(=O)c1ccc2c(=O)n(CCOC)c(=O)[nH]c2c1`, the cell number change was -1.43%. Moreover, the concentration at half-maximal activity (AC50) under setting [1] was 0.00517 µM [falling, full curve, poor fit].

As for `O=C(O)c1ccccc1C(=O)Nc1cc(-c2ccccc2)[nH]n1`, the cell number change was -2.13%.

`CC(C)C[C@H]1CN=C(Nc2ccccc2)N1CCCC1CCCCC1`: the cell number change is -2.4%.

Regarding `COC(=O)CN1C(=S)N(c2ccc(F)cc2)C(=O)C1CC(=O)Nc1ccccc1` (stereo not given), the AC50 by setting is: under setting [2], 0.82 µM [falling, full curve]; under setting [1], 1.03 µM [falling, full curve].

As for `O=C(NNc1cccc(Cl)n1)C1CC1`, the cell number change is -30.6%. For the same compound, the half-maximal activity concentration (AC50) under setting [2] is 0.146 µM [falling, full curve]. Moreover, the AC50 under setting [1] is 0.116 µM [falling, full curve].

For `CCC(C)(C)n1nnnc1C(C(C)C)N1CCN(C(=O)c2ccco2)CC1` (stereo not given), the cell number change came to 1.28%.

As to `CCOc1ccc(C(C)C)cc1S(=O)(=O)N1CCN(C(=O)c2ccco2)CC1`, the cell number change is -8.2%. In addition, the AC50 under setting [1] was 6.51 µM [rising, single point].

For the compound `CNS(=O)(=O)c1cccc(C(=O)NNC(=O)CN(C)S(=O)(=O)c2ccc(Cl)cc2)c1`, the cell number change is -6%.

For `COc1cccc(OCCCn2ccnc2)c1`, the cell number change was -16.8%. Also, the AC50 under setting [1] is 29.1 µM [falling, single point].

`O=C(O)c1cc(C2CC2)nn1-c1ccccc1`: the cell number change is -0.116%.

Consider `Cc1cccc(NC(=O)CCN2CCOCC2)c1`, for which the cell number change is 10.6%. The AC50 under setting [1] was 0.651 µM [falling, full curve, poor fit].

As for `N#CCCNS(=O)(=O)c1ccc(C(=O)OCC2CCCCC2)cc1`, the cell number change was -5.56%. Further, the AC50 under setting [1] was 11.6 µM [falling, partial curve].

In the case of `COc1ccc(OC)c(C2C(C#N)=C(N)Oc3cc(N)ccc32)c1` (stereo not given), the cell number change is -0.749%. Also, the AC50 under setting [2] is 0.164 µM [rising, partial curve].

On to `CN(Cc1nc(-c2ccc(Cl)cc2)no1)C(=O)c1ccco1`, for which the cell number change was -3.85%. Moreover, the AC50 under setting [1] is 29.1 µM [falling, single point].

Turning to `O=C(O)CCC(=O)OCc1c(-c2ccccc2)ncc2ccccc12`, the cell number change stood at 10%.

Take `COc1ccccc1NC(=S)NC1CCC(CC2CCC(NC(=S)Nc3ccccc3OC)CC2)CC1` (stereo not given): the cell number change was -11.5%. In addition, the AC50 under setting [1] is 29.1 µM [rising, single point].

`CC12CCC(=O)N1C(C(=O)NCCc1ccccc1)CS2` (stereo not given): the cell number change was found to be 13%.

Take `COc1ccc(CC(=O)NC(C)c2nnc(SCC(=O)c3ccc(Br)cc3)n2C)cc1` (stereo not given): the cell number change is -83.1%. In addition, the AC50 under setting [2] was 29.1 µM [falling, single point].

Take `Cc1cccc(NS(=O)(=O)c2cccc3cccnc23)n1`: the cell number change was -0.245%. Further, the AC50 under setting [1] was 0.461 µM [rising, partial curve].

What is called AC50 is the concentration at which the activity in the assay is half-maximal. The low end stands for activity at low concentration, the high end for activity only at high concentration.

The values above are taken from PubChem BioAssay AID2685 (National Center for Advancing Translational Sciences (NCATS), 2010).
